Reference: the supplement of paper PMC6411743
± gives the standard deviation of the averaged measurements. This is one part of the list.

Sequences of proteins named here, by UniProt entry; tags and fusion partners are left off. A change or cut given only in a name is not applied to a line headed by its entry.
UniProt Q8N6G5: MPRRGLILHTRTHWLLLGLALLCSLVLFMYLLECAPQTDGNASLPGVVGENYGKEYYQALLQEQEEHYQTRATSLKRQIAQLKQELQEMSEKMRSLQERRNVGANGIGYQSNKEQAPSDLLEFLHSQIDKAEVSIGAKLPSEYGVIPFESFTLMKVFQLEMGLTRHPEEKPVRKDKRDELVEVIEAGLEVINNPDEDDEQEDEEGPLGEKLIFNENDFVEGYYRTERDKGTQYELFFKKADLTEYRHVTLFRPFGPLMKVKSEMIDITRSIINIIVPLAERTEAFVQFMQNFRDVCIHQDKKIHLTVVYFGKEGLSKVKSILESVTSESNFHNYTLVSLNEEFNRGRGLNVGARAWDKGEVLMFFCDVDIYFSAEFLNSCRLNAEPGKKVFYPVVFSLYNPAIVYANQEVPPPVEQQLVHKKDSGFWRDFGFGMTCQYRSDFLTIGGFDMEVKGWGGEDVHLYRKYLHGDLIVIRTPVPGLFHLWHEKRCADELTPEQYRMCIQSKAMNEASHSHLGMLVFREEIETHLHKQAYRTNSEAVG
UniProt Q8IVS2: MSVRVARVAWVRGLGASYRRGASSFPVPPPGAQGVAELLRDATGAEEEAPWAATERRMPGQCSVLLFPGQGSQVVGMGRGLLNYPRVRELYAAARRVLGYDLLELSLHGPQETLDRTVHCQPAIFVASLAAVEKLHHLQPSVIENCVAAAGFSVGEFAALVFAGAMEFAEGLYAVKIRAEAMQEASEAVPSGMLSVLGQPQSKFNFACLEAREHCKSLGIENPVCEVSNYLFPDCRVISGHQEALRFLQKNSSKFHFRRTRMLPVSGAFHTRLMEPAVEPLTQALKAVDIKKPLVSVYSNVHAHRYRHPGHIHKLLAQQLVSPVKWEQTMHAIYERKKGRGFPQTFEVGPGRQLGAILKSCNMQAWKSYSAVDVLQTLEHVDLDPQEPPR
UniProt Q8NEC7: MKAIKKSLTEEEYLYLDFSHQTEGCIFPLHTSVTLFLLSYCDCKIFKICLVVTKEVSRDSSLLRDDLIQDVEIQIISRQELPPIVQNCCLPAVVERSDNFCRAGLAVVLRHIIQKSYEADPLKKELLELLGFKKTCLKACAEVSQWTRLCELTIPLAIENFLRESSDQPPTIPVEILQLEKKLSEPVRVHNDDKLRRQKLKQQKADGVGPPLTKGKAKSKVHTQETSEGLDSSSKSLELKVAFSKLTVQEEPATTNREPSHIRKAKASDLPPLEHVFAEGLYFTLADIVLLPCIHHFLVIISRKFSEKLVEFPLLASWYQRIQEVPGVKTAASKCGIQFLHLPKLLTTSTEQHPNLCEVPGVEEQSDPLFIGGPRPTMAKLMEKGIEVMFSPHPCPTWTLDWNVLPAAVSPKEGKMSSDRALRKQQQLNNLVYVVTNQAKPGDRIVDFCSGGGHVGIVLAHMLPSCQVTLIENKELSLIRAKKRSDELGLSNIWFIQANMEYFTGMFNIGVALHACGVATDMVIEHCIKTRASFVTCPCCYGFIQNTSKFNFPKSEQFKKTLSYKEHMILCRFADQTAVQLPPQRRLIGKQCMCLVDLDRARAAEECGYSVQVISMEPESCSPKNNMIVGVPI
UniProt Q8NHU6: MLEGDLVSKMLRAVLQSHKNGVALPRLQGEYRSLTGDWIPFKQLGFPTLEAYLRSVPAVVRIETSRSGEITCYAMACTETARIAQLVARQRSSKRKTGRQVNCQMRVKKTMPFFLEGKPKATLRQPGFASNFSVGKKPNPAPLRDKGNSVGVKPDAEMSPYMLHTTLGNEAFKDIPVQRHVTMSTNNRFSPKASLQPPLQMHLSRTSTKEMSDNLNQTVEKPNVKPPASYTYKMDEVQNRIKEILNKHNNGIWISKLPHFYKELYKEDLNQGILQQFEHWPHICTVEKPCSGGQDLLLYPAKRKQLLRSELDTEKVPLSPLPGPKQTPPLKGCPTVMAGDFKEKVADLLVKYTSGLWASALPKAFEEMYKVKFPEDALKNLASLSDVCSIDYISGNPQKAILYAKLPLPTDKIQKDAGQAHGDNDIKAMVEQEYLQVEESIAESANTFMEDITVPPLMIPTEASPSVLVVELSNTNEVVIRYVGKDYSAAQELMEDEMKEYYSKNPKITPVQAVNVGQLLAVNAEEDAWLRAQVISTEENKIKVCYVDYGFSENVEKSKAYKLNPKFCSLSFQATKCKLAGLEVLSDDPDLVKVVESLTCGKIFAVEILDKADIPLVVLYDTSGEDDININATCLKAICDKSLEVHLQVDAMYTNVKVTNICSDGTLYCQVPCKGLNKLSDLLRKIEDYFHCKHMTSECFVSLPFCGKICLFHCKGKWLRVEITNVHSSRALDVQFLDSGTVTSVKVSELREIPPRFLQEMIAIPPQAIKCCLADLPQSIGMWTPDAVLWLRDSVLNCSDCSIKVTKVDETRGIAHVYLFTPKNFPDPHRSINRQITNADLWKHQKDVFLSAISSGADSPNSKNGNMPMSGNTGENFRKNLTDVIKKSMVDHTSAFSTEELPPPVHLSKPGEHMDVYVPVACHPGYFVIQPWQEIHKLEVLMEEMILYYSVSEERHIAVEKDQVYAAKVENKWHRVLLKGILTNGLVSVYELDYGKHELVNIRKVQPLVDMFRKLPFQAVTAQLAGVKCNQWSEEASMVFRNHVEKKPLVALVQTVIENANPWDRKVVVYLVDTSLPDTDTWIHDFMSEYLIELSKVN
UniProt Q8TEH3: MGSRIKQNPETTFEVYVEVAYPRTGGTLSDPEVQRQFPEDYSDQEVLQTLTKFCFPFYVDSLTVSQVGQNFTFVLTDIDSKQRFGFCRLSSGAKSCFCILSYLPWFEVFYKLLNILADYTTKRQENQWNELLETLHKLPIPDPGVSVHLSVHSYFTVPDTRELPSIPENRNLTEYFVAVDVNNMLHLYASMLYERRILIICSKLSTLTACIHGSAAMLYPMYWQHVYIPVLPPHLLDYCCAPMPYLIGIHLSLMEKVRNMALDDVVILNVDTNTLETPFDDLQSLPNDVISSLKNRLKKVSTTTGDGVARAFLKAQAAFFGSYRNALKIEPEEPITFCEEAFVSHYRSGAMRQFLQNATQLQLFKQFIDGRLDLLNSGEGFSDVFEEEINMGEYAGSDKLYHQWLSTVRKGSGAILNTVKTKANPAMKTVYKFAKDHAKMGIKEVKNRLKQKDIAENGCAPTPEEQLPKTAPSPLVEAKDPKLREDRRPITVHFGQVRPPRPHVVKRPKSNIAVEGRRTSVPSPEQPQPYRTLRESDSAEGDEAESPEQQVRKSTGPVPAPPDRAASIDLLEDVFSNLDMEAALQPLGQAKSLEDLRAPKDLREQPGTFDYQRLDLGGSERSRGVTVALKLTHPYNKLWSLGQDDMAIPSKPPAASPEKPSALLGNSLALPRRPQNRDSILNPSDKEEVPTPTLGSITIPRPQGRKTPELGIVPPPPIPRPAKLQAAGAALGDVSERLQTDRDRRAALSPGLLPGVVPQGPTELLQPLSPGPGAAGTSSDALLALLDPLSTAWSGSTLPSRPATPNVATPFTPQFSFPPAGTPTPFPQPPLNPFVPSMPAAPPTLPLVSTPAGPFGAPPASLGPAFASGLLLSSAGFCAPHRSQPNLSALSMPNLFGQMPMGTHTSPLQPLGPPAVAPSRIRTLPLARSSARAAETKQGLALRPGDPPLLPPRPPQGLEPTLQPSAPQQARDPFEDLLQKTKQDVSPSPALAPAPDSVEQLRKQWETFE
UniProt Q8IWT6: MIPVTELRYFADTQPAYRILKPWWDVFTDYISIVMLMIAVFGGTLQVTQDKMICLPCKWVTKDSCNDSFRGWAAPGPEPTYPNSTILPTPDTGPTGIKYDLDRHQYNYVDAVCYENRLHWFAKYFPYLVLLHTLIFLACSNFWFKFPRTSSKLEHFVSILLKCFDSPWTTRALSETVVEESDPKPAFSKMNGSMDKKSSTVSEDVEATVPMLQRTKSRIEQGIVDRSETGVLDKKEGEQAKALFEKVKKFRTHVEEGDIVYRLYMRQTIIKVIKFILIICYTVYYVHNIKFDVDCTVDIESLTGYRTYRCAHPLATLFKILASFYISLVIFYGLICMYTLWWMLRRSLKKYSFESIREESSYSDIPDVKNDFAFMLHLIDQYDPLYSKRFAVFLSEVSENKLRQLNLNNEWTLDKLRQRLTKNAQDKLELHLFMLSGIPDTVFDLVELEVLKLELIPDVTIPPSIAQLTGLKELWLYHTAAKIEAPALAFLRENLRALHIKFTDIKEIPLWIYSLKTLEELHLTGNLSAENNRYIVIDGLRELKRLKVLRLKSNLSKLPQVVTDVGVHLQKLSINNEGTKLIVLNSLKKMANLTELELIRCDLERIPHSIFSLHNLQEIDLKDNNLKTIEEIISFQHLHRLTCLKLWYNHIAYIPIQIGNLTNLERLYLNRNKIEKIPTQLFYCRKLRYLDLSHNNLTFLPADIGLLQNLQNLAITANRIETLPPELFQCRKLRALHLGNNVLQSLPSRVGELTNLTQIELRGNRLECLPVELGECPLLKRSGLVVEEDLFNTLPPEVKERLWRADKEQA
UniProt Q8NFH3: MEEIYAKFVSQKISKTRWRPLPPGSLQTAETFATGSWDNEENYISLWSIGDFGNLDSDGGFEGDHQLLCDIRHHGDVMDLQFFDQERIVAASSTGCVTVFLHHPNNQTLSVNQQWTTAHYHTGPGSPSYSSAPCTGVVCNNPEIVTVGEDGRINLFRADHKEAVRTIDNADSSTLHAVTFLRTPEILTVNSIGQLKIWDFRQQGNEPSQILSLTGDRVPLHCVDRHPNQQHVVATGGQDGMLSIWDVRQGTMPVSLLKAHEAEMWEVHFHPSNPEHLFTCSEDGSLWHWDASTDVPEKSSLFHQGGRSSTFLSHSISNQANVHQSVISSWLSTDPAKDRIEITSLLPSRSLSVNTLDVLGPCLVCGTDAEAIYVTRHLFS
UniProt Q8NHP8: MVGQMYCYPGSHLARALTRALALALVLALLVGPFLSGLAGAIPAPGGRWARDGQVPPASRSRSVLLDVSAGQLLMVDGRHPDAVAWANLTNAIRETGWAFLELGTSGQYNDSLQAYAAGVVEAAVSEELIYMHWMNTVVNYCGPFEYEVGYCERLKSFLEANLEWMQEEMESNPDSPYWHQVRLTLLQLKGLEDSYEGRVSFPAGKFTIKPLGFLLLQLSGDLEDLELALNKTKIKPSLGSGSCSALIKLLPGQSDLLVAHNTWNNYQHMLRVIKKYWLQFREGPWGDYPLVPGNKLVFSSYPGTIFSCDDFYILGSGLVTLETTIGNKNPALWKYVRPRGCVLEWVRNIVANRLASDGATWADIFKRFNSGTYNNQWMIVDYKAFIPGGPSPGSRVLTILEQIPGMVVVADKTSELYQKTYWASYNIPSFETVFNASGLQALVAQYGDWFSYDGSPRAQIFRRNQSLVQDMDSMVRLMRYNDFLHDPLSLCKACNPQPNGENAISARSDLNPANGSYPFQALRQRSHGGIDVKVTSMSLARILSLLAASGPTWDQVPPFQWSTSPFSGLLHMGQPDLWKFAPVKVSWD
UniProt Q8NFV4: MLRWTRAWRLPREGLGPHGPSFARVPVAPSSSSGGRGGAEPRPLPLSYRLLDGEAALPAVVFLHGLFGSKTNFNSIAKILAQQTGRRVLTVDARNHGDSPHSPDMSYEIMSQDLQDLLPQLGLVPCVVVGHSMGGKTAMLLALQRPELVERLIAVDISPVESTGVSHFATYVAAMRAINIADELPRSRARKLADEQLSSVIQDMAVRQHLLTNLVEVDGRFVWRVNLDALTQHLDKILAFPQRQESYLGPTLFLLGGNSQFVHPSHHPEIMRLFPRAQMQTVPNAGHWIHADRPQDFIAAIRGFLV
UniProt Q8IZ81: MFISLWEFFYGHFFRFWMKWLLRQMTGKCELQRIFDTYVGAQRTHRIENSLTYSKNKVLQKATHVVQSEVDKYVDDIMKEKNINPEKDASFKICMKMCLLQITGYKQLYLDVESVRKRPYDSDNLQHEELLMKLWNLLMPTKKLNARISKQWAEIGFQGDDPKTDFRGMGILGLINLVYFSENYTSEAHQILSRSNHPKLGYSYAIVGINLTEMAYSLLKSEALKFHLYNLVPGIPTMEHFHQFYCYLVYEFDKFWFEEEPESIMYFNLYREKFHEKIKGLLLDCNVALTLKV
UniProt Q8WUA2: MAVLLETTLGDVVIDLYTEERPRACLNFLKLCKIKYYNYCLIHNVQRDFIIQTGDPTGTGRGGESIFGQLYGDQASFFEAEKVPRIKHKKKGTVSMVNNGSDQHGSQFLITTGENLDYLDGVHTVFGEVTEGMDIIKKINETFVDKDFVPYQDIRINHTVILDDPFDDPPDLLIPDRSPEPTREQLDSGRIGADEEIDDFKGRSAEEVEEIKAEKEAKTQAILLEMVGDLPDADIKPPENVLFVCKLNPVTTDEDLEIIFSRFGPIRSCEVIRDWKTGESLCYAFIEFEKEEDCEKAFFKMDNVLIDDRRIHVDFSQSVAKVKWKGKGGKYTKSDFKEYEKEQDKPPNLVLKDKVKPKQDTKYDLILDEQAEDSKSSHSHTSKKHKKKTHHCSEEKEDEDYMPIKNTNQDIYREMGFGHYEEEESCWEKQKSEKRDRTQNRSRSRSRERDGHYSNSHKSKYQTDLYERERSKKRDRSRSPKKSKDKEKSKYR

Compound: Nc1nc2c(ncn2[C@@H]2O[C@H](COP(=O)(O)OP(=O)(O)OP(=O)(O)O)[C@@H](O)[C@H]2O)c(=O)[nH]1 [guanosine triphosphate]
Experiment: NP40-soluble protein abundance relative to vehicle (solubility fold change) (ratio); higher = more soluble protein in presence of GTP
Details: concentration: 8mM
In short: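 Data come from three independent experiments in which Dounce-homogenised Jurkat crude lysate was treated at eight concentrations from 0.1 to 10 mM. Treatment ran 10 min at room temperature and then 3 min at 37 °C, after which 0.8% NP40 and benzonase were added for 60 min at 4 °C before ultracentrifugation. The supernatant underwent TMT labelling and LC-MS/MS, and vsn-normalised intensities were expressed as fold change against the detergent-processed vehicle in each replicate.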

Target	NP40-soluble protein abundance
UniProt Q8N2K0 and related entries	0.997 ± 0.031
UniProt Q8NI08 and related entries	0.901 ± 0.029
UniProt Q8N6G5 and related entries	0.894 ± 0.016
UniProt Q8IVS2	1.01 ± 0.068
UniProt Q8IWY9 and related entries	1 ± 0.018
UniProt Q8NEC7 and related entries	1.04 ± 0.16
UniProt Q8NHU6 and related entries	1.09 ± 0.065
UniProt Q8TEH3 and related entries	0.914 ± 0.17
DCP2 (UniProt Q8IU60)	0.962 ± 0.071
LRRC8A (UniProt Q8IWT6)	1.27 ± 0.15
UniProt Q8IX12 and related entries	1.17 ± 0.077
UniProt Q8ND76 and related entries	1.07 ± 0.16
UniProt Q8N4C8 and related entries	1.103 ± 0.0074
NFATC2IP (UniProt Q8NCF5)	0.959 ± 0.11
UniProt Q8NDI1-2|Q8NDI1-3|Q8NDI1	0.913 ± 0.066
NUP43 (UniProt Q8NFH3)	1.11 ± 0.071
PLBD2 (UniProt Q8NHP8)	0.933 ± 0.067
UniProt Q8IYB5-2|Q8IYB5-3	0.911 ± 0.1
RNF169 (UniProt Q8NCN4)	1.51 ± 0.19

Copied from the list.
In NP40-soluble protein abundance, UniProt Q8N6G5 and related entries is entered as 0.894 ± 0.016
In NP40-soluble protein abundance, UniProt Q8NI08 and related entries is entered as 0.901 ± 0.029

More records.

Target	NP40-soluble protein abundance
ZC3H15 (UniProt Q8WU90)	0.993 ± 0.053
UniProt Q8IXQ5 and related entries	1.01 ± 0.23
UniProt Q8NFV4 and related entries	0.955 ± 0.021
UniProt Q8TDY2 and related entries	1.12 ± 0.085
UniProt Q8NBJ5	0.903 ± 0.023
UniProt Q8NCW5	0.895 ± 0.11
UniProt Q8NHM5 and related entries	1.21 ± 0.075
ZNF579 (UniProt Q8NAF0)	0.982 ± 0.042
UniProt Q8N4V1 and related entries	0.883 ± 0.11
UniProt Q8IZ81 and related entries	0.958 ± 0.13
UniProt Q8IXW5 and related entries	1.11 ± 0.031
MLKL (UniProt Q8NB16)	0.868 ± 0.045
UniProt Q8NDV3 and related entries	1.03 ± 0.11
LIX1L (UniProt Q8IVB5)	0.893 ± 0.089
GALNT12 (UniProt Q8IXK2)	0.949 ± 0.06
UniProt Q8N0Y2 and related entries	1.02 ± 0.031
PPIL4 (UniProt Q8WUA2)	1.02 ± 0.022
DDX51 (UniProt Q8N8A6)	2.05 ± 0.24
